This note sets out measurements from the supplement of paper PMC4604168 (melanoma cell lines).

The other results are listed elsewhere or left out. Many values rest on one well or one pass, so single values are uncertain.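 The apoptosis fraction was the count of cleaved-PARP antibody-stained nuclei relative to all DNA-stained nuclei, imaged in 1,536-well plates. Screening doses were set so most cells survived, and baseline and induced cleaved-PARP levels vary greatly across cell lines.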

In the experiment the test system is WM3526. Put plainly: cleaved PARP positive nuclei fraction relative to DMSO control; melanoma cells; higher = more apoptosis. The settings on record: library dose: low library concentration; 72 h.
Regarding `Cc1ccc(Nc2nccc(N(C)c3ccc4c(C)n(C)nc4c3)n2)cc1S(N)(=O)=O` [Pazopanib] + O=C(Nc1cccc(Cl)c1)Nc1ncc(CCNc2ncnc3ccsc23)s1 [SNS314] (first compound 0.4 µM, partner dose 0.0008 µM), the “cleaved PARP positive nuclei fraction” value came out at 67.5%.

Consider `CC[C@]1(O)C[C@H]2CN(CCc3c([nH]c4ccccc34)[C@@](C(=O)OC)(c3cc4c(cc3OC)N(C=O)[C@H]3[C@@](O)(C(=O)OC)[C@H](OC(C)=O)[C@]5(CC)C=CCN6CC[C@]43[C@@H]65)C2)C1` [vincristine] + COc1ccc(-c2ccc3c(N4CCOCC4)nc(N4C[C@@H](C)O[C@@H](C)C4)nc3n2)cc1CO [KU0063794] (first compound 0.0001 µM, partner dose 0.02 µM), for which the “cleaved PARP positive nuclei fraction” value turned out to be 24.6%.

As for `O=c1[nH]nc(Sc2ncc([N+](=O)[O-])s2)n1-c1ccc2c(c1)OCCO2` + COc1cc(Nc2ncc(F)c(Nc3ccc4c(n3)NC(=O)C(C)(C)O4)n2)cc(OC)c1OC [Tamatinib] (first compound 0.2 µM, partner dose 0.4 µM), the “cleaved PARP positive nuclei fraction” value was found to be 42.8%.

Consider `O=C(/C=C/c1cccnc1)NCCCCC1CCN(C(=O)c2ccccc2)CC1` + Cc1cc(N2CCOCC2)cc2[nH]c(-c3c(NC[C@@H](O)c4cccc(Cl)c4)cc[nH]c3=O)nc12 [BMS536924] (first compound 0.01 µM, partner dose 0.2 µM), for which the “cleaved PARP positive nuclei fraction” value came to 71.1%.

`Cc1cc(Nc2cc(N3CCN(C)CC3)nc(Sc3ccc(NC(=O)C4CC4)cc3)n2)n[nH]1` [Tozasertib] + CC1(C)NC(=O)N(c2ccc([N+](=O)[O-])c(C(F)(F)F)c2)C1=O [nilutamide] (first compound 0.006 µM, partner dose 1 µM): the “cleaved PARP positive nuclei fraction” value was determined as 66.2%.

For `O=C(/C=C/c1cccnc1)NCCCCC1CCN(C(=O)c2ccccc2)CC1` + O=S(=O)(c1ccccc1)N(CC(F)(F)F)c1ccc(C(O)(C(F)(F)F)C(F)(F)F)cc1 [T0901317] (first compound 0.01 µM, partner dose 1.4 µM), the “cleaved PARP positive nuclei fraction” value was found to be 254%.

For `CC[C@]1(O)C[C@H]2CN(CCc3c([nH]c4ccccc34)[C@@](C(=O)OC)(c3cc4c(cc3OC)N(C=O)[C@H]3[C@@](O)(C(=O)OC)[C@H](OC(C)=O)[C@]5(CC)C=CCN6CC[C@]43[C@@H]65)C2)C1` [vincristine] + Cc1cc(N2CCOCC2)cc2[nH]c(-c3c(NC[C@@H](O)c4cccc(Cl)c4)cc[nH]c3=O)nc12 [BMS536924] (first compound 0.0001 µM, partner dose 0.2 µM), the “cleaved PARP positive nuclei fraction” value came to 289%.

For the molecule `O=c1[nH]nc(Sc2ncc([N+](=O)[O-])s2)n1-c1ccc2c(c1)OCCO2` + O=c1cc(-c2cccc3c2Sc2ccccc2S3)oc(N2CCOCC2)c1 [KU55933] (first compound 0.2 µM, partner dose 1 µM), the “cleaved PARP positive nuclei fraction” value came out at 270%.

With `COc1cc([C@@H]2c3cc4c(cc3[C@@H](O[C@@H]3O[C@@H]5CO[C@@H](C)O[C@H]5[C@H](O)[C@H]3O)[C@H]3COC(=O)[C@H]23)OCO4)cc(OC)c1O` [etoposide] + O=C1NC(=O)/C(=C/c2ccc(-c3ccc(F)cc3O)o2)S1 [AS252424] (first compound 0.02 µM, partner dose 1 µM), the “cleaved PARP positive nuclei fraction” value turned out to be 80.7%.

Regarding `Cc1cn(-c2cc(NC(=O)c3ccc(C)c(Nc4nccc(-c5cccnc5)n4)c3)cc(C(F)(F)F)c2)cn1` [nilotinib] + CCCCCCCCCCCC1=C(O)C(=O)C=C(O)C1=O [Embelin] (first compound 0.2 µM, partner dose 1.2 µM), the “cleaved PARP positive nuclei fraction” value came out at 37.5%.

As for `O=c1[nH]nc(Sc2ncc([N+](=O)[O-])s2)n1-c1ccc2c(c1)OCCO2` + CCCCCCCCCCCC1=C(O)C(=O)C=C(O)C1=O [Embelin] (first compound 0.2 µM, partner dose 1.2 µM), the “cleaved PARP positive nuclei fraction” value came to 78.8%.

Turning to `O=c1[nH]nc(Sc2ncc([N+](=O)[O-])s2)n1-c1ccc2c(c1)OCCO2` + O=C(Nc1cccc(Cl)c1)Nc1ncc(CCNc2ncnc3ccsc23)s1 [SNS314] (first compound 0.2 µM, partner dose 0.0008 µM), the “cleaved PARP positive nuclei fraction” value turned out to be 64.4%.

Consider `CCCCCCCCCCCCCCCCCCOP(=O)([O-])OC1CC[N+](C)(C)CC1` [Perifosine] + NC(=O)Nc1cc(-c2cccc(F)c2)sc1C(=O)N[C@H]1CCCNC1 [AZD7762] (first compound 0.4 µM, partner dose 0.02 µM), for which the “cleaved PARP positive nuclei fraction” value is 63%.

Regarding `COc1cc([C@@H]2c3cc4c(cc3[C@@H](O[C@@H]3O[C@@H]5CO[C@@H](C)O[C@H]5[C@H](O)[C@H]3O)[C@H]3COC(=O)[C@H]23)OCO4)cc(OC)c1O` [etoposide] + COc1cc(N2CCC(N3CCN(C)CC3)CC2)ccc1Nc1ncc(Cl)c(Nc2ccccc2S(=O)(=O)C(C)C)n1 [NVP-TAE684] (first compound 0.02 µM, partner dose 0.08 µM), the “cleaved PARP positive nuclei fraction” value was 41.6%.

Take `Cc1cc(Nc2cc(N3CCN(C)CC3)nc(Sc3ccc(NC(=O)C4CC4)cc3)n2)n[nH]1` [Tozasertib] + COc1cc(N2CCC(N3CCN(C)CC3)CC2)ccc1Nc1ncc(Cl)c(Nc2ccccc2S(=O)(=O)C(C)C)n1 [NVP-TAE684] (first compound 0.006 µM, partner dose 0.08 µM): the “cleaved PARP positive nuclei fraction” value amounted to 87.8%.

With `CCCCCCCCCCCCCCCCCCOP(=O)([O-])OC1CC[N+](C)(C)CC1` [Perifosine] + O=S(=O)(c1ccccc1)N(CC(F)(F)F)c1ccc(C(O)(C(F)(F)F)C(F)(F)F)cc1 [T0901317] (first compound 0.4 µM, partner dose 1.4 µM), the “cleaved PARP positive nuclei fraction” value turned out to be 84.1%.

Turning to `CC[C@]1(O)C[C@H]2CN(CCc3c([nH]c4ccccc34)[C@@](C(=O)OC)(c3cc4c(cc3OC)N(C=O)[C@H]3[C@@](O)(C(=O)OC)[C@H](OC(C)=O)[C@]5(CC)C=CCN6CC[C@]43[C@@H]65)C2)C1` [vincristine] + Cn1cncc1[C@@](N)(c1ccc(Cl)cc1)c1ccc2c(c1)c(-c1cccc(Cl)c1)cc(=O)n2C [tipifarnib] (first compound 0.0001 µM, partner dose 0.01 µM), the “cleaved PARP positive nuclei fraction” value was 100%.

On to `Cc1cn(-c2cc(NC(=O)c3ccc(C)c(Nc4nccc(-c5cccnc5)n4)c3)cc(C(F)(F)F)c2)cn1` [nilotinib] + CN(NC(=O)CC(=O)NN(C)C(=S)c1ccccc1)C(=S)c1ccccc1 [STA4783] (first compound 0.2 µM, partner dose 0.006 µM), for which the “cleaved PARP positive nuclei fraction” value was determined as 125%.

As to `O=C(/C=C/c1cccnc1)NCCCCC1CCN(C(=O)c2ccccc2)CC1` + O=C(Nc1ccccc1)c1cc([N+](=O)[O-])ccc1Cl [GW9662] (first compound 0.01 µM, partner dose 2 µM), the “cleaved PARP positive nuclei fraction” value worked out at 137%.

On to `CC[C@]1(O)C[C@H]2CN(CCc3c([nH]c4ccccc34)[C@@](C(=O)OC)(c3cc4c(cc3OC)N(C=O)[C@H]3[C@@](O)(C(=O)OC)[C@H](OC(C)=O)[C@]5(CC)C=CCN6CC[C@]43[C@@H]65)C2)C1` [vincristine] + O=c1cc(-c2cccc3c2Sc2ccccc2S3)oc(N2CCOCC2)c1 [KU55933] (first compound 0.0001 µM, partner dose 1 µM), for which the “cleaved PARP positive nuclei fraction” value worked out at 101%.

Turning to `N#CC[C@H](C1CCCC1)n1cc(-c2ncnc3[nH]ccc23)cn1` [ruxolitinib] + NCC(=O)Nc1ccc(-n2nc(C(F)(F)F)cc2-c2ccc3c(ccc4ccccc43)c2)cc1 [OSU03012] (first compound 1 µM, partner dose 1 µM), the “cleaved PARP positive nuclei fraction” value amounted to 45.3%.

As for `O=c1[nH]nc(Sc2ncc([N+](=O)[O-])s2)n1-c1ccc2c(c1)OCCO2` + CC(C)CCN1c2nc(Nc3cc(F)c(O)c(F)c3)ncc2N(C)C(=O)C1C [BID1870] (first compound 0.2 µM, partner dose 0.2 µM), the “cleaved PARP positive nuclei fraction” value amounted to 82.6%.

Turning to `Cc1cn(-c2cc(NC(=O)c3ccc(C)c(Nc4nccc(-c5cccnc5)n4)c3)cc(C(F)(F)F)c2)cn1` [nilotinib] + O=C(Nc1cccc(Cl)c1)Nc1ncc(CCNc2ncnc3ccsc23)s1 [SNS314] (first compound 0.2 µM, partner dose 0.0008 µM), the “cleaved PARP positive nuclei fraction” value is 32.3%.

Regarding `Cc1ccc(Nc2nccc(N(C)c3ccc4c(C)n(C)nc4c3)n2)cc1S(N)(=O)=O` [Pazopanib] + O=S(=O)(c1ccccc1)N(CC(F)(F)F)c1ccc(C(O)(C(F)(F)F)C(F)(F)F)cc1 [T0901317] (first compound 0.4 µM, partner dose 1.4 µM), the “cleaved PARP positive nuclei fraction” value worked out at 145%.

For `CCCCCCCCCCCCCCCCCCOP(=O)([O-])OC1CC[N+](C)(C)CC1` [Perifosine] + CC(C)(C)c1cnc(CSc2cnc(NC(=O)C3CCNCC3)s2)o1 [SNS-032] (first compound 0.4 µM, partner dose 0.01 µM), the “cleaved PARP positive nuclei fraction” value turned out to be 60%.
